The list shows a part of the results. Further columns of the screen follow, without active or inactive calls. The list favours compounds with an active or inconclusive main result. Potencies come from curve fits of mixed quality, noted in brackets.
Test: qHTS Assay for Lipid Storage Modulators in Drosophila S3 Cells;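 as to cell number change: cells counted by Cell Tracker Red CMTPX staining in the red channel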
Conditions: BODIPY lipid droplet fluorescence, 18-24 h; for cell number change: measured here: cell count max response, cells fed with added oleic acid
Procedure, shortened: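 Drosophila S3 cells got compounds at several concentrations plus oleic acid (400 uM solution). Laser-scanning cytometry with 488 nm excitation read lipid droplets at 500-530 nm and cells at 575-640 nm. Percent activity was relative to 20 uM Triacsin C.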

[1] = measured here: lipid fluorescence (Fed channel) AC50, cells fed with added oleic acid
[2] = measured here: cell number channel AC50, cells fed with added oleic acid

O=C(Oc1ccccc1)c1cccc2cccc(C(=O)Oc3ccccc3)c12
cell number change: 6.32% | AC50 [1]: 29.1 µM [falling, single point]

CCOC(=O)c1ccc(/C=N/O)[n+](Cc2ccccc2)c1
cell number change: 5.7% | AC50 [1]: 0.651 µM [falling, single point]

COc1ccc(/C=C/C(=O)c2ccc3ccccc3c2O)cc1CN1CCOCC1
AC50 [1]: 29.1 µM [rising, single point]

Cc1nc2cc(NC(=O)COc3ccc(C#N)cc3)ccc2n1-c1ccccc1
cell number change: -26.7% | AC50 [1]: 16.4 µM [falling, partial curve, poor fit]

C=CCn1c(SCC(=O)NC23CC4CC(CC(C4)C2)C3)nc2cc(C(=O)O)ccc2c1=O
cell number change: 35.5% | AC50 [2]: 29.1 µM [rising, single point]

COc1cccc(Cn2cc(C(=O)NCCN(C)C)nn2)c1
cell number change: -42.9% | AC50 [2]: 29.1 µM [falling, single point]

COc1ccc([N+](=O)[O-])cc1NC(=O)CN(C)S(=O)(=O)c1ccccc1
cell number change: 12.9% | AC50 [2]: 2.06 µM [rising, partial curve, poor fit] | AC50 [1]: 3.66 µM [rising, single point]

CCN1CCN(C(=O)N2CCOCC2)CC1
cell number change: -11.5% | AC50 [1]: 0.291 µM [falling, partial curve, poor fit]

C/C(=N\Nc1cccc([N+](=O)[O-])c1)c1cc2ccccc2o1
cell number change: -25.2% | AC50 [1]: 0.731 µM [falling, single point]

CC(C)Sc1nc2sc3c(c2c2nnc(SCC(=O)NCc4ccco4)n12)CCCC3
AC50 [2]: 1.84 µM [rising, partial curve] | AC50 [1]: 0.651 µM [rising, single point]

COc1ccc(S(=O)(=O)NC(C)C(=O)NCc2cccnc2)cc1OC (stereo not drawn)
cell number change: 16.8%

O=C(N/N=C/c1sc(N2CCCCC2)nc1-c1cccs1)c1cccnc1
cell number change: -27.4%

COc1ccc(C(NC(=O)CC(C)C)NC(=O)CC(C)C)cc1OC
cell number change: -0.817%

CC(=O)N1C[C@H](O)C[C@H]1C(=O)O
cell number change: -38.2% | AC50 [2]: 29.1 µM [falling, single point] | AC50 [1]: 29.1 µM [falling, single point]

CCc1ccc(-n2cccc2/C=C2/C(=N)N3C(=NC2=O)SN=C3S(C)(=O)=O)cc1
AC50 [1]: 29.1 µM [rising, single point]

COc1ccc(CCNC2=NCC(C)S2)cc1 (stereo not drawn)
cell number change: -18.2% | AC50 [1]: 14.6 µM [falling, partial curve]

COc1ccc(CCNC2=C(Cl)C(=O)N(CCc3ccc(OC)c(OC)c3)C2=O)cc1OC
cell number change: 21.4% | AC50 [1]: 6.51 µM [rising, partial curve]

Cc1ccc(C)c(CN2C(=O)NC3(CCCCCC3)C2=O)c1
AC50 [2]: 6.51 µM [rising, single point] | AC50 [1]: 29.1 µM [rising, single point]

CC(O)CNc1nc2c(c(=O)n(Cc3cccc(Cl)c3)c(=O)n2C)n1C (stereo not drawn)
cell number change: 10.6%

CCOC(=O)c1sc(NC(=O)Nc2ccccc2)cc1C
cell number change: -53.9% | AC50 [2]: 29.1 µM [falling, single point] | AC50 [1]: 1.3 µM [falling, single point]

COc1cccc(Cn2cccc(NC(=O)Nc3ccccc3C)c2=O)c1
cell number change: -30.9% | AC50 [2]: 18.4 µM [falling, single point] | AC50 [1]: 18.4 µM [falling, single point]

O=C(NNC(=S)Nc1ccc(Cl)c(Cl)c1)c1cccc([N+](=O)[O-])c1
cell number change: 3.99% | AC50 [1]: 0.103 µM [falling, full curve, poor fit]

Cc1ccc(C2=NCN(c3ccc(C(=O)O)cc3)C(=S)N2)cc1
cell number change: -2.28% | AC50 [1]: 0.731 µM [falling, partial curve, poor fit]

COc1ccccc1N1CCN(S(=O)(=O)c2ccc3nc(-c4ccccc4)[nH]c3c2)CC1
cell number change: 41.6% | AC50 [2]: 7.31 µM [rising, single point] | AC50 [1]: 20.6 µM [rising, single point]

COC(=O)CN1CCN(C(=O)c2ccc(F)cc2)c2ccccc2C1
cell number change: 12.7% | AC50 [1]: 0.103 µM [falling, full curve, poor fit]

C/C(=N\NC(=O)c1cc(-c2ccncc2)nc2ccccc12)c1ccc(N2CCOCC2)cc1
cell number change: 33.1% | AC50 [2]: 11.6 µM [rising, partial curve, poor fit]

Cc1nnc(NC(=O)CSc2ccc3nnc(-c4cccnc4)n3n2)s1
cell number change: 33.9% | AC50 [2]: 29.1 µM [rising, single point] | AC50 [1]: 1.16 µM [rising, full curve]

COc1ccc(S(=O)(=O)Nc2c(NC3CCCCC3)c3ccccc3oc2=O)cc1
cell number change: -49.8% | AC50 [2]: 29.1 µM [falling, single point]

O=c1c(CN2CCN(c3ccccn3)CC2)coc2ccccc12
cell number change: -35.5% | AC50 [2]: 7.31 µM [falling, partial curve, poor fit] | AC50 [1]: 29.1 µM [rising, single point]

COc1ccc(NC(=O)CCn2c(=O)c3cccn3c3ccccc32)c(OC)c1
cell number change: -23.6% | AC50 [1]: 0.461 µM [rising, partial curve, poor fit]

COc1cc(CN2CCCC(N3CCN(c4ccccc4C)CC3)C2)ccc1O (stereo not drawn)
cell number change: 14.5%

COc1ccccc1CCC(=O)Nc1ccc(OC)c(S(=O)(=O)N2CCOCC2)c1
cell number change: 30.1% | AC50 [2]: 23.1 µM [rising, single point] | AC50 [1]: 2.06 µM [rising, single point]

Cc1[nH]nc(-c2ccc(O)c(C)c2O)c1-c1cnn(-c2ccccc2)c1
cell number change: -12.2% | AC50 [1]: 0.0366 µM [rising, full curve, poor fit]

Cc1nc2ccccc2c2nc3ccccc3n12
cell number change: 1.5% | AC50 [1]: 18.4 µM [rising, partial curve]

CC1(CCc2ccccc2)NC(=O)N(CC(=O)Nc2ccc(S(N)(=O)=O)cc2)C1=O (stereo not drawn)
cell number change: -3.79% | AC50 [1]: 20.6 µM [falling, partial curve, poor fit]

CCNC(=O)/C(C#N)=C/c1c(N2CCN(c3ccc(OC)cc3)CC2)nc2c(C)cccn2c1=O
cell number change: -6.31% | AC50 [2]: 0.411 µM [falling, single point]

Source: PubChem BioAssay AID2685 (National Center for Advancing Translational Sciences (NCATS), 2010)
